In the supplement of paper PMC11732987, “Enantioselective OTUD7B fragment discovery through chemoproteomics screening and high-throughput optimisation” (Communications Chemistry, 2025):
This is one part of the list. The data scatter; read single values as rough.

By UniProt entry, the sequences of proteins in these tests, tags left out. Where a name states a change or a piece, a line headed by the entry shows the natural chain unless it says otherwise. Residues count along the entry.
UniProt Q12962: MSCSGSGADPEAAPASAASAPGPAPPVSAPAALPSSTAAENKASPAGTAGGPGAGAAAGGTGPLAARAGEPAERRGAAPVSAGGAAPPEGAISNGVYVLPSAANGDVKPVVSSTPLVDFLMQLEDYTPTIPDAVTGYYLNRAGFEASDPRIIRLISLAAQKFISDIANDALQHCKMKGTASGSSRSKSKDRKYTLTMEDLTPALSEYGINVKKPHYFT
UniProt O75410: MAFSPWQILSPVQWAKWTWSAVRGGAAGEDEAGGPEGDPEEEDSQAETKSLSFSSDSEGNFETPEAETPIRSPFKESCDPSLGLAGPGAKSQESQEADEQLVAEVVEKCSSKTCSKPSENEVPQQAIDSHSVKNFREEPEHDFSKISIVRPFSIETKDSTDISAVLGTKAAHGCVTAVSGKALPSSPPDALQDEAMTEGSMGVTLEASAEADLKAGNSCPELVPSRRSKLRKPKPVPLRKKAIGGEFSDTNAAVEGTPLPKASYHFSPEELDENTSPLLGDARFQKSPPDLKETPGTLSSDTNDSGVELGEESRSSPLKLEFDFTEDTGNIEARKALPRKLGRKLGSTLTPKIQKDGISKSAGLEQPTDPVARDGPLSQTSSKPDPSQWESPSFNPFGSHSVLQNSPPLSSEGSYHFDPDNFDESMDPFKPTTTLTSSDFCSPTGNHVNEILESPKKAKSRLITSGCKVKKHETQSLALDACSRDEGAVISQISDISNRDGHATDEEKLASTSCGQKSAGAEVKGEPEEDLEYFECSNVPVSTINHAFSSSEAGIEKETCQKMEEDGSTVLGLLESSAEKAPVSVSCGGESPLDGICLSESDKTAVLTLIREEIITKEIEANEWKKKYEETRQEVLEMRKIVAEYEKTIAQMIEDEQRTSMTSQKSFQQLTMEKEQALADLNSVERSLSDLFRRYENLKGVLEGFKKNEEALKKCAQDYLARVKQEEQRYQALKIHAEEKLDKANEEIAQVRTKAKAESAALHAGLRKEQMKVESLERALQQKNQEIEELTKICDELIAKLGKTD
UniProt Q9UK61: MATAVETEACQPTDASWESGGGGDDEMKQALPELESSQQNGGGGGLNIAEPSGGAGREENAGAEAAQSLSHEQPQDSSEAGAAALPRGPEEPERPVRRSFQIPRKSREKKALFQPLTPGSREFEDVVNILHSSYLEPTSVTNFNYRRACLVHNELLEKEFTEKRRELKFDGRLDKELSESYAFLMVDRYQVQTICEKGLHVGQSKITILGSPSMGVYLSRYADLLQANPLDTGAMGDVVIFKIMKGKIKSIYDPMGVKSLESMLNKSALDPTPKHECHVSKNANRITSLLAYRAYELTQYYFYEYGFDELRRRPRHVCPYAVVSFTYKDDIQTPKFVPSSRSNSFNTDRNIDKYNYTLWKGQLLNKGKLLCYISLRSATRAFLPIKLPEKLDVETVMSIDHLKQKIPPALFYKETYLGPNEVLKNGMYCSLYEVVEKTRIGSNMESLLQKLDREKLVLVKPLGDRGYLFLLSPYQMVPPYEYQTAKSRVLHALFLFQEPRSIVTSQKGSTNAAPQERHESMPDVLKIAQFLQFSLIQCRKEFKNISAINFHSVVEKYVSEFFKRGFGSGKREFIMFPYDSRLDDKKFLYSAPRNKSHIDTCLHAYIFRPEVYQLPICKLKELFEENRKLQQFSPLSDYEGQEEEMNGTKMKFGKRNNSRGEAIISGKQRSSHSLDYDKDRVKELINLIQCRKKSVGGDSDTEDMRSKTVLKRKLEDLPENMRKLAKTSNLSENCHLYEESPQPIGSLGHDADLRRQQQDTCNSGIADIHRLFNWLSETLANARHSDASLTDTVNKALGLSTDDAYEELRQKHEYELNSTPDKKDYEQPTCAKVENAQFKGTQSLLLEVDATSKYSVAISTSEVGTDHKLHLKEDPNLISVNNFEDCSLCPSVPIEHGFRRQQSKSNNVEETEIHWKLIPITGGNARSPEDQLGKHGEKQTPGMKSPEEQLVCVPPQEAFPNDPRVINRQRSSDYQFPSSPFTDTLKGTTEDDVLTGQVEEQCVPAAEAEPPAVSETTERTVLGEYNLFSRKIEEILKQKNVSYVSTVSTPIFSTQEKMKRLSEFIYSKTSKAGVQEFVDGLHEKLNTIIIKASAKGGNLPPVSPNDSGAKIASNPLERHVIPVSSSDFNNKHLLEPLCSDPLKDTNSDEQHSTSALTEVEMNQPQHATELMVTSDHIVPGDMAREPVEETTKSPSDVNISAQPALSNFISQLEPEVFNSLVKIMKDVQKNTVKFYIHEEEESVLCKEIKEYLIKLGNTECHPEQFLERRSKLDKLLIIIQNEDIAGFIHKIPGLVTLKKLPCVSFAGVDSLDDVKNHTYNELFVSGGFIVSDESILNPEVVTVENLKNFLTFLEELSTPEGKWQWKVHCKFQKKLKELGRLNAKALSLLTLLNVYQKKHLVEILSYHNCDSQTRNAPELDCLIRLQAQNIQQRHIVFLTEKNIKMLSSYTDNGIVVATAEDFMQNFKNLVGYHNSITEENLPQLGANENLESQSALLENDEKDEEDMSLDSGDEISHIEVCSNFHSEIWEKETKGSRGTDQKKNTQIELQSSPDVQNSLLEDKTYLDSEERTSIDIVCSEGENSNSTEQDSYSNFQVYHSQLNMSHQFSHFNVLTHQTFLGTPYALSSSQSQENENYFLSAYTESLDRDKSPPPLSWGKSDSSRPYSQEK
UniProt Q15814: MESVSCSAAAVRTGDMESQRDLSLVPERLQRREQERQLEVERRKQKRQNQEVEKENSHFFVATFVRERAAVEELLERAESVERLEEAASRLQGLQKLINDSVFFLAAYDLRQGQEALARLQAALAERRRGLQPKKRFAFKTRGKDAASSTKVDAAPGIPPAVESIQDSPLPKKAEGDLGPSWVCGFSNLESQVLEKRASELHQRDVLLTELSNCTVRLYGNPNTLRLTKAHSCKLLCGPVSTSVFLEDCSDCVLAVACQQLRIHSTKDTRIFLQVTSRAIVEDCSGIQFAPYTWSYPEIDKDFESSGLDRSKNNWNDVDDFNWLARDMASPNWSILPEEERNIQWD
UniProt Q8TC07: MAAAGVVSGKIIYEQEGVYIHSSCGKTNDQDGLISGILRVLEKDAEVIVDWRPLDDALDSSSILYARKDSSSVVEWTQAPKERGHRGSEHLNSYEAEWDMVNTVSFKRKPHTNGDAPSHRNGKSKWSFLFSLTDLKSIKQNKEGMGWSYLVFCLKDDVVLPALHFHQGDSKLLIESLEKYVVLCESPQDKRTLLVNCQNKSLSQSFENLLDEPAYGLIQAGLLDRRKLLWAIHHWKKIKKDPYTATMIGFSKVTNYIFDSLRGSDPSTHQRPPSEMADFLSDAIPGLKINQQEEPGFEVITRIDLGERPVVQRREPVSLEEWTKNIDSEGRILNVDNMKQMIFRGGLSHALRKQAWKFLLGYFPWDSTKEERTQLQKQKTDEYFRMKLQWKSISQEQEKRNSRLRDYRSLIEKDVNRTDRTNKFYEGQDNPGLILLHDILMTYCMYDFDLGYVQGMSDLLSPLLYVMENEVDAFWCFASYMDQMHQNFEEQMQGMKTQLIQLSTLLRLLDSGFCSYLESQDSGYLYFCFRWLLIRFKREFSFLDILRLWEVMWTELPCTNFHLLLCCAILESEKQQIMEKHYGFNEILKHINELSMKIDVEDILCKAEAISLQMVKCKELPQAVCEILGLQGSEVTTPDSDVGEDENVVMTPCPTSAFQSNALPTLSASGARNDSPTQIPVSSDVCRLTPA
UniProt Q9UGI8: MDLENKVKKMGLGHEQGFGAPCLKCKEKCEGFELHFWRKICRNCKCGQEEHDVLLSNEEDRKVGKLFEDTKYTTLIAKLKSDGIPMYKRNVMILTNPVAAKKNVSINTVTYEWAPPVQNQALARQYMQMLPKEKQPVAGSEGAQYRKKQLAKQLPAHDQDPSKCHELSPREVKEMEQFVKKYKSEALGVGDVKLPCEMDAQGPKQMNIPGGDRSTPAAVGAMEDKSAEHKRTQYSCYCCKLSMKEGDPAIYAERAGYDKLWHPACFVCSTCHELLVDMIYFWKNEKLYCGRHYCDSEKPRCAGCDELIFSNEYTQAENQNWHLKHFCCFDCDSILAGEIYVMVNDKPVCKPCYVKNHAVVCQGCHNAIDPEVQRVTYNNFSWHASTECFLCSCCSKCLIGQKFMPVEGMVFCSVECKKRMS
UniProt Q92844: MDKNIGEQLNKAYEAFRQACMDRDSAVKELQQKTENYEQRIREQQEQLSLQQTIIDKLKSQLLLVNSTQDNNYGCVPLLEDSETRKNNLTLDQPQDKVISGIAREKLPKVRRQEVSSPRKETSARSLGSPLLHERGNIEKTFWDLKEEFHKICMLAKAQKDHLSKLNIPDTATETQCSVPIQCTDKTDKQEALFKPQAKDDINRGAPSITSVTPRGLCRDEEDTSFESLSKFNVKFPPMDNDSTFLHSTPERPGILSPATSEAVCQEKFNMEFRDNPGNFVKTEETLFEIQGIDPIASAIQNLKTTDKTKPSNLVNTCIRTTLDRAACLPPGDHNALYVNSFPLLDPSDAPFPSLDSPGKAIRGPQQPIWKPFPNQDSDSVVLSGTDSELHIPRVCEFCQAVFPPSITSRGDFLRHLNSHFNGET
UniProt Q9NXG2: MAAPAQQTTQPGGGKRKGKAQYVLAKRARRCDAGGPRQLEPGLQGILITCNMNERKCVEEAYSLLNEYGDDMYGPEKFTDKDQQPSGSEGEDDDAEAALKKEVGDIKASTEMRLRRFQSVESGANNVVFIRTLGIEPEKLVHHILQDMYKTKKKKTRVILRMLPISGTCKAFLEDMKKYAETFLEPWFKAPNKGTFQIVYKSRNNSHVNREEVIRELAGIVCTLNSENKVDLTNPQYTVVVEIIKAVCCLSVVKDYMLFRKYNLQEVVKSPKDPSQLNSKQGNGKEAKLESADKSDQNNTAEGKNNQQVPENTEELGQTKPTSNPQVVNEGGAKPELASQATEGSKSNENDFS
UniProt Q8IYQ7: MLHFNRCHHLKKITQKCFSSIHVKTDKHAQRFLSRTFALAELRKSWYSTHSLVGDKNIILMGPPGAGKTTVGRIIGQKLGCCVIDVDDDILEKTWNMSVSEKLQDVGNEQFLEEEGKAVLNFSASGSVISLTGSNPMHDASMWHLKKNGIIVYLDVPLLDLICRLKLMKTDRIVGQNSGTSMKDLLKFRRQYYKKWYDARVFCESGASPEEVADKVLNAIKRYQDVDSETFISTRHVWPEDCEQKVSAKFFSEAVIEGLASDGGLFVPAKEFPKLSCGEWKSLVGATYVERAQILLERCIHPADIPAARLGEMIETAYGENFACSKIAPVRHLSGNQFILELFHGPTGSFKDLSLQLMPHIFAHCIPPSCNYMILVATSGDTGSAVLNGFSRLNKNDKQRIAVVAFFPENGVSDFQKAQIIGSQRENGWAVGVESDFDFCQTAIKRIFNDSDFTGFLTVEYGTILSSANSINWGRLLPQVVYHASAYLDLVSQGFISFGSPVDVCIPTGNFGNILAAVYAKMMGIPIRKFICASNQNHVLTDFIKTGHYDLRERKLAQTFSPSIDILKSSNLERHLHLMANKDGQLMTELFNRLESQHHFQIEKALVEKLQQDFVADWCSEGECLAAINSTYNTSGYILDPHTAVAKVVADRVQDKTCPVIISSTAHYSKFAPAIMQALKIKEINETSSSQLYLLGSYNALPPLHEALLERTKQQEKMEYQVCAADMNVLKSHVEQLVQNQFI
UniProt Q8IYN2: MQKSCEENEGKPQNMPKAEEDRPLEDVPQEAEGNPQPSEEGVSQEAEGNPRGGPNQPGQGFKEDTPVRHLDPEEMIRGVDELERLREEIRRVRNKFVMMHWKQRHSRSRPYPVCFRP
UniProt O60343, 749-768: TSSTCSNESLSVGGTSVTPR
UniProt P49848: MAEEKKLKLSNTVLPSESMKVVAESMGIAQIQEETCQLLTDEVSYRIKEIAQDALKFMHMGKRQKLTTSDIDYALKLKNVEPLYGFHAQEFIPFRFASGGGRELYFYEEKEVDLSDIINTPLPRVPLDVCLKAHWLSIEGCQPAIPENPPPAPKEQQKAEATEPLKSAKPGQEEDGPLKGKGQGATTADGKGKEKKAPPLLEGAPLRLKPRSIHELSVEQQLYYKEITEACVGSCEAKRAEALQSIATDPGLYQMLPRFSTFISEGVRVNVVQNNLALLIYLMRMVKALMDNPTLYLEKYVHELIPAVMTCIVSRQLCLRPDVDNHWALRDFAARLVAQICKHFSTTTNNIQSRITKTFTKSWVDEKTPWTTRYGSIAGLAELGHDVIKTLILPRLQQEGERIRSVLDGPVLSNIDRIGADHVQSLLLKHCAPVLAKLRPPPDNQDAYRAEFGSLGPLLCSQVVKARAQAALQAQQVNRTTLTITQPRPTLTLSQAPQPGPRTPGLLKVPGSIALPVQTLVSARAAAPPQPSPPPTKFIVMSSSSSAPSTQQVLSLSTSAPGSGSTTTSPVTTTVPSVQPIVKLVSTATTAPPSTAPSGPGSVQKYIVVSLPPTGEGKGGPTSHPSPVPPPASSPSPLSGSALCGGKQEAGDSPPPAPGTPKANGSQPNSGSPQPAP
UniProt Q03167, 819-851: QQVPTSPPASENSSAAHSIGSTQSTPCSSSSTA

Legend:
[1] = compound: ClCC(=O)N[C@@H]1CCCc2ccccc12; assay: log2 mean competition ratio of IA-DTB cysteine labelling (DMSO/compound) (log2 ratio); higher = stronger cysteine engagement by compound; settings: treatment time: 4 h, cell line lysate: HEK293T
Description: (§1)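 IA-DTB competitive cysteine chemoproteomics in HEK293T RIPA lysate. Lysates were treated with compound 29 or 30 at 50 or 200 µM for 4 h, then IA-DTB (500 µM, 1 h), trypsin-digested, NeutrAvidin-enriched and analysed by diaPASEF. Competition ratio = intensity DMSO / intensity compound (n=4 treated, n=64 DMSO); binding: mean log2 CR ≥ 1 and p ≤ 0.05 plus QC filters. Target is the cysteine site.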

[2] = compound: ClCC(=O)N[C@H]1CCCc2ccccc12; assay: as above; settings: treatment time: 4 h, cell line lysate: HEK293T
Description: as §1

Target | log2 mean competition ratio ([1]; 50 µM) | log2 mean competition ratio ([1]; 200 µM) | log2 mean competition ratio ([2]; 50 µM) | log2 mean competition ratio ([2]; 200 µM)
TAF10 C174 (UniProt Q12962) | -0.114 | 0.434 | -0.0543 | 0.446
THUMPD3 C434 (UniProt Q9BV44) | -0.0501 | 0.077 | -0.0348 | 0.155
TCEA2 C269 (UniProt Q15560) | -0.14 | 0.615 | -0.408 | 0.239
TASOR2 C1423 (UniProt Q5VWN6) | -0.0918 | 0.0869 | 0.13 | -0.0816
TACC1 C467 (UniProt O75410) | 0.0117 | 0.184 | 0.199 | 0.161
TASOR C830 (UniProt Q9UK61) | -0.144 | 0.0275 | 0.11 | 0.136
TEPSIN C352 | 0.408 | 0.0967 | 0.239 | 0.456
TBCC C6 (UniProt Q15814) | 0.0156 | -0.172 | -0.0876 | -0.0251
TAPBP C115 (UniProt O15533) | 0.072 | 0.0713 | 0.125 | 0.134
TBC1D13 C387 (UniProt Q9NVG8) | -0.14 | 0.0192 | -0.335 | -0.0429
TBC1D15 C197 (UniProt Q8TC07) | -0.0408 | 0.0876 | 0.362 | 0.441
TACC1 C219 (UniProt O75410) | 0.111 | -0.236 | 0.188 | -0.112
TES C196 (UniProt Q9UGI8) | -0.118 | 0.253 | -0.58 | 0.111
TAF9;TAF9B C121;(C121) | 0.498 | 0.235 | 0.344 | 0.223
TENM2 C774 | -0.264 | -0.16 | -0.268 | -0.193
TAF5L C188 (UniProt O75529) | -0.1 | 0.308 | 0.113 | 0.612
TBC1D1 C766 (UniProt Q86TI0) | -0.198 | 0.457 | -0.466 | 0.325
TCF20 C1163 (UniProt Q9UGU0) | 0.477 | 0.032 | 0.194 | 0.0151
TBC1D22B C206 (UniProt Q9NU19) | 0.0558 | 0.107 | -0.00843 | 0.132
TEPSIN C31 | -0.194 | -0.0805 | -0.482 | 0.197
THOC1 C156 (UniProt Q96FV9) | 0.139 | 0.747 | 0.417 | 0.299
TARS3 C62 | -0.123 | 0.0841 | 0.135 | 0.331

An excerpt of these results, with tabs:
Target	log2 mean competition ratio ([1]; 50 µM)	log2 mean competition ratio ([1]; 200 µM)	log2 mean competition ratio ([2]; 50 µM)	log2 mean competition ratio ([2]; 200 µM)
TAF10 C174 (UniProt Q12962)	-0.114	0.434	-0.0543	0.446
TES C196 (UniProt Q9UGI8)	-0.118	0.253	-0.58	0.111

Additional records:

Target | log2 mean competition ratio ([1]; 50 µM) | log2 mean competition ratio ([1]; 200 µM) | log2 mean competition ratio ([2]; 50 µM) | log2 mean competition ratio ([2]; 200 µM)
THOC3 C134 (UniProt Q96J01) | 0.0131 | -0.251 | 0.166 | -0.451
TBC1D22B C144 (UniProt Q9NU19) | -0.0696 | 0.188 | 0.0272 | 0.109
TBC1D15 C184 (UniProt Q8TC07) | 0.349 | 0.144 | 0.118 | 0.0385
TEDC1 C461 (UniProt Q86SX3) | 0.169 | 0.272 | -0.188 | 0.156
TANK C318 (UniProt Q92844) | 0.055 | 0.294 | 0.139 | 0.37
THOC1 C396 (UniProt Q96FV9) | 0.0853 | -0.252 | 0.206 | -0.154
TACC1 C78 (UniProt O75410) | -0.048 | -0.0343 | 0.0663 | -0.0999
TANGO6 C985 (UniProt Q9C0B7) | -0.0996 | -0.256 | -0.0986 | -0.206
THUMPD1 C169 (UniProt Q9NXG2) | 0.0318 | -0.176 | 0.426 | -0.071
TEDC2 C417 (UniProt Q7L2K0) | -0.0596 | 0.315 | -0.098 | 0.257
TFB1M C160 (UniProt Q8WVM0) | -0.00853 | -0.111 | -0.0703 | -0.0847
THNSL1 C299 (UniProt Q8IYQ7) | 0.275 | -0.384 | -0.626 | -0.713
TBL2 C335 (UniProt Q9Y4P3) | 0.123 | 0.197 | 0.255 | 0.249
TCEAL8 C5 (UniProt Q8IYN2) | -0.0874 | -0.0845 | -0.0211 | -0.0544
TCF20 C1328 (UniProt Q9UGU0) | 0.113 | -0.0323 | -0.235 | -0.176
THAP4 C229 (UniProt Q8WY91) | -0.0451 | 0.287 | 0.6 | 0.416
TBC1D4 C753 (UniProt O60343) | -0.139 | -0.0625 | 0.444 | 0.00196
TAF6 C460 (UniProt P49848) | 0.491 | 0.0673 | 0.0964 | 0.16
THOP1 C350 (UniProt P52888) | 0.313 | -0.24 | 0.0169 | -0.316
TGFBR3 C845 (UniProt Q03167) | -0.194 | -0.346 | 0.283 | -0.595
TAF11 C173 (UniProt Q15544) | -0.0886 | 0.331 | -0.159 | -0.146
TEPSIN C243 | -0.0605 | 0.595 | 0.352 | -0.386
